Test results: the supplement of paper PMC10849652
The other results are listed elsewhere or left out.

Amino acid sequences for entries named in this document (tags omitted). A change or cut given only in a name is not applied to a line headed by its entry.
UniProt Q96Q11: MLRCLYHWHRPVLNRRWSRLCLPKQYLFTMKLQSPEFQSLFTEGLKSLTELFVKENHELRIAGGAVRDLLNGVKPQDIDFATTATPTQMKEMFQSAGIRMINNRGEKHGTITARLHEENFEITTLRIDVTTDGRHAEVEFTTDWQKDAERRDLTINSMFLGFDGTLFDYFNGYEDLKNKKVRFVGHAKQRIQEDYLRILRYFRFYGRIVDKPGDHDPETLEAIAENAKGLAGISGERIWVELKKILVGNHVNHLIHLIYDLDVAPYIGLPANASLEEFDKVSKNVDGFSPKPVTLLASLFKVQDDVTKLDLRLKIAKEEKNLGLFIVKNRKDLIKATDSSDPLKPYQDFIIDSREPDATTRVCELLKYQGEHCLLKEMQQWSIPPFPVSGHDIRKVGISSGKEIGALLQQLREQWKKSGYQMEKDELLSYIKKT
UniProt P09493, whole entry, looked up: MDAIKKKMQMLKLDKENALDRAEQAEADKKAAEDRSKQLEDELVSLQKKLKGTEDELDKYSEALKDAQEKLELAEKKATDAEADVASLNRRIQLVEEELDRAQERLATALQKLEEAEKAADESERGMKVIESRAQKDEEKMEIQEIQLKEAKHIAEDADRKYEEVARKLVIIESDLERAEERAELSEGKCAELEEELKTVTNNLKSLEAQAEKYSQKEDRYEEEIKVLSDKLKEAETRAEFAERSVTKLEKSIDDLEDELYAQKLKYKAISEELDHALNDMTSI
UniProt Q15785: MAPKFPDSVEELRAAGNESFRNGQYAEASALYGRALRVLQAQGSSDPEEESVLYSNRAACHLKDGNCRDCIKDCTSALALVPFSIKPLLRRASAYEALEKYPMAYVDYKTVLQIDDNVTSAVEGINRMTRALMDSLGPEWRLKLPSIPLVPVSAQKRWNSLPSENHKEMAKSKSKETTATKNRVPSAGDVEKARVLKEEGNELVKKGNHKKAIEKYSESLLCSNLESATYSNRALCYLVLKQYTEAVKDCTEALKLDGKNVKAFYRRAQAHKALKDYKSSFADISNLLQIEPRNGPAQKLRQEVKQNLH
UniProt P07951, whole entry, looked up: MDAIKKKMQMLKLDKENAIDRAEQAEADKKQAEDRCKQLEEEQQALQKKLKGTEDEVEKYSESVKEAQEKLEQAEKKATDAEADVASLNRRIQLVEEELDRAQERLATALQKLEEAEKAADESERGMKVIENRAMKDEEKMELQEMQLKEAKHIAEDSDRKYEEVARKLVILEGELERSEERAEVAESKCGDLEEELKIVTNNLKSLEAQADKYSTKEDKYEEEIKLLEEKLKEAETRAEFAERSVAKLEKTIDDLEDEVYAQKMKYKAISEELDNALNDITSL
UniProt Q7Z392: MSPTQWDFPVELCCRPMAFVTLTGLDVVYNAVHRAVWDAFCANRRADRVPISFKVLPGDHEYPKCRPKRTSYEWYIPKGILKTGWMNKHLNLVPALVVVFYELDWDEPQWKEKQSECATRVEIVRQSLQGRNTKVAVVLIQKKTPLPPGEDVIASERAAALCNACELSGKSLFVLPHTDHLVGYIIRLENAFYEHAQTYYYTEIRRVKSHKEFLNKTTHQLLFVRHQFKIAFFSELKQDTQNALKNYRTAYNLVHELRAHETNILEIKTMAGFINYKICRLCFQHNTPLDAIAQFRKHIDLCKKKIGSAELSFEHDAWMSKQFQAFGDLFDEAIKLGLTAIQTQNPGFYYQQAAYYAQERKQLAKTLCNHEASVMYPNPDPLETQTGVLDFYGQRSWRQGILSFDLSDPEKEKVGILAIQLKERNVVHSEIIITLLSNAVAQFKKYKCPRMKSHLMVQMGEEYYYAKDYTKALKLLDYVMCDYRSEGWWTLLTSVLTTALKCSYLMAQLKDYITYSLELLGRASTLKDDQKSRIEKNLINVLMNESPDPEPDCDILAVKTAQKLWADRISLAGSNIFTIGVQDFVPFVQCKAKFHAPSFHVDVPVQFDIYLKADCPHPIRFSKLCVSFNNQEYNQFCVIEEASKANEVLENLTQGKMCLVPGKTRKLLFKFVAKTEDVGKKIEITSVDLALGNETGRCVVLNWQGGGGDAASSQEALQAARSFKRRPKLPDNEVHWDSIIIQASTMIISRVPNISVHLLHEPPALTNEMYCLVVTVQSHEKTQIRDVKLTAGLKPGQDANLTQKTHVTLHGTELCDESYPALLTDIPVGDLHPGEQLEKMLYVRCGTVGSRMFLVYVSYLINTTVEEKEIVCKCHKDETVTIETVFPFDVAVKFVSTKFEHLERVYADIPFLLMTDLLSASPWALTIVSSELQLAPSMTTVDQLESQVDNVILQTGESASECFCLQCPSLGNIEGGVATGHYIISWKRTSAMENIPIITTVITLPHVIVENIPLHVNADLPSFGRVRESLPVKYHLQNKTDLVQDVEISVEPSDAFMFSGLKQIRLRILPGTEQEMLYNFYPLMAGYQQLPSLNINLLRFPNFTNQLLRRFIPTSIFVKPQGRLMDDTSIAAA
UniProt Q969M1: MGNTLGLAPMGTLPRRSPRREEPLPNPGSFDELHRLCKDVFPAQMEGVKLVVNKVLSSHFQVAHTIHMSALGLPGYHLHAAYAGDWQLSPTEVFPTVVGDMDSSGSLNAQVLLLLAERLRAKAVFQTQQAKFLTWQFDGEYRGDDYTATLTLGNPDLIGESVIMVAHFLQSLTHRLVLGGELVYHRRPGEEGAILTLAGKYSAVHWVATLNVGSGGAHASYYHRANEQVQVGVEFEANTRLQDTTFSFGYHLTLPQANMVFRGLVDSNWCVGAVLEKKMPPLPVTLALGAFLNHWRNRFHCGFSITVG
UniProt P11388: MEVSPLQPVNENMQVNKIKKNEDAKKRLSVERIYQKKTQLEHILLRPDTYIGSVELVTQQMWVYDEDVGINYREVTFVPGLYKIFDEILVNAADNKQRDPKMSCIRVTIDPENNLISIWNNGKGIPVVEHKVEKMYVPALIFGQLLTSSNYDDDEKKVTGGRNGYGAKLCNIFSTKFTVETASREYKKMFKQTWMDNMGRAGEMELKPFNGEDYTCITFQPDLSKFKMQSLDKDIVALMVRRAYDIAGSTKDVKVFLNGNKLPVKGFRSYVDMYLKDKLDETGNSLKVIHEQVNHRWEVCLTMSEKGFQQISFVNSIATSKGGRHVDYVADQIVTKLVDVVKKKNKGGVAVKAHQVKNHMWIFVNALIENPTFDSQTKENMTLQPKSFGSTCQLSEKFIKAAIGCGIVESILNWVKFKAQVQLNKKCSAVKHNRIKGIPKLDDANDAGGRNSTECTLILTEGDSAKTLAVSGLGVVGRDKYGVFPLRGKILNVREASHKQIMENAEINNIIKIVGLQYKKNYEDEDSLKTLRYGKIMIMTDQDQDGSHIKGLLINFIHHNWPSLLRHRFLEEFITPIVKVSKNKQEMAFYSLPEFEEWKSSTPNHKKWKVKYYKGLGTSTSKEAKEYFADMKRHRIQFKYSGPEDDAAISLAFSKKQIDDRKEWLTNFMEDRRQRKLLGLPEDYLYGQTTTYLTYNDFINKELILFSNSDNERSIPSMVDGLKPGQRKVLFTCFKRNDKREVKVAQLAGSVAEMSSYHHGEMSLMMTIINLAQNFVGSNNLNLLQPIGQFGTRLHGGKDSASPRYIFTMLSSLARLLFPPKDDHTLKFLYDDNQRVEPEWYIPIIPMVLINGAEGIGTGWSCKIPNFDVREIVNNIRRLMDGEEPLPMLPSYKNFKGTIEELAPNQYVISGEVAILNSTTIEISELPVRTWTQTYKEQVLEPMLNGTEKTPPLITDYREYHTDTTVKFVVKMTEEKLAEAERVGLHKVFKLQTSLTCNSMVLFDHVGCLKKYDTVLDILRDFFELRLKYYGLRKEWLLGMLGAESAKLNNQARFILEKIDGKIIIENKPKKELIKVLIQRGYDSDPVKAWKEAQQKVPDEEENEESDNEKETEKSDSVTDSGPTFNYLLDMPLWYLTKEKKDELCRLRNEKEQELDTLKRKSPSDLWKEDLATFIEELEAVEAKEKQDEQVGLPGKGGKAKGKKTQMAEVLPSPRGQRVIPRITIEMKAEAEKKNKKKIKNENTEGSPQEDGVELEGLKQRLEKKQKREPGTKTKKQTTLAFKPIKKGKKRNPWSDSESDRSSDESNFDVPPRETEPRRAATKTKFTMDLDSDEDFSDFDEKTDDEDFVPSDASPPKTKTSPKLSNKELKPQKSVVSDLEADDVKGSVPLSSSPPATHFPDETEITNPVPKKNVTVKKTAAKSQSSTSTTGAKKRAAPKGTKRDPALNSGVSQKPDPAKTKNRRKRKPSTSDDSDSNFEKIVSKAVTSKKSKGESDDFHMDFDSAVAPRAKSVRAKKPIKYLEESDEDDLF
UniProt Q8WW01: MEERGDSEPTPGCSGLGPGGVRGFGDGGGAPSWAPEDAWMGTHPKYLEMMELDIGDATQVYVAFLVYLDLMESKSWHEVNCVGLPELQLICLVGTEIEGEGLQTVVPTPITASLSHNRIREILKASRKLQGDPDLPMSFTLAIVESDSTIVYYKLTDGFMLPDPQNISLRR
UniProt Q15388, whole entry, looked up: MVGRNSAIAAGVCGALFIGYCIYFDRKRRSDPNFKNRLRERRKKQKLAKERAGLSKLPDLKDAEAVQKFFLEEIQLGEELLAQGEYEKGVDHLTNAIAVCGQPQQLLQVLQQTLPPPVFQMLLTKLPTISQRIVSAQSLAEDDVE
UniProt Q9Y3Q8: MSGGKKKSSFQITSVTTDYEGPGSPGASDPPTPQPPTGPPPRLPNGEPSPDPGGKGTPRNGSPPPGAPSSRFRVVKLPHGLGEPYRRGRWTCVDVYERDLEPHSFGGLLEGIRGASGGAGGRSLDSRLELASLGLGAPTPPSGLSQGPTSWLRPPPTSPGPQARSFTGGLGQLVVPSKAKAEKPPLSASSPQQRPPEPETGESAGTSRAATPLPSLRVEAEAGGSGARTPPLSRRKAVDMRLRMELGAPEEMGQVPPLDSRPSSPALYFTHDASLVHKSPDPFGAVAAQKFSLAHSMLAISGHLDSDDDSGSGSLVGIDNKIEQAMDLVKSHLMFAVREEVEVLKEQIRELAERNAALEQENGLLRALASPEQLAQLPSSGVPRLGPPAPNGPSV
UniProt O43715: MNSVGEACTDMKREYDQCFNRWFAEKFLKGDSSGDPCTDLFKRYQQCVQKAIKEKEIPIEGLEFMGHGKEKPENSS
UniProt Q15654: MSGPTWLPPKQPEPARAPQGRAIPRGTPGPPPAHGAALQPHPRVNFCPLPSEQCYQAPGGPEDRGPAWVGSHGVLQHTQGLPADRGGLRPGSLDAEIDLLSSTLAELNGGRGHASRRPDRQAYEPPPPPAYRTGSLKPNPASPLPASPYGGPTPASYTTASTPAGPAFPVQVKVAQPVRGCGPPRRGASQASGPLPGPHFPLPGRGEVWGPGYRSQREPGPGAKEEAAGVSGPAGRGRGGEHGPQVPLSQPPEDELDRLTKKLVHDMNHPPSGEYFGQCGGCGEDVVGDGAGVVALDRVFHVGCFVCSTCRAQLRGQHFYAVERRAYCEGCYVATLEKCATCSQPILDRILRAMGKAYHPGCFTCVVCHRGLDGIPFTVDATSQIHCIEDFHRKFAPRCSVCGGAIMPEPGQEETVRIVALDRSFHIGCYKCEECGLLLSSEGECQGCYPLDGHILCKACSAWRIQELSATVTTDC
UniProt Q96S44: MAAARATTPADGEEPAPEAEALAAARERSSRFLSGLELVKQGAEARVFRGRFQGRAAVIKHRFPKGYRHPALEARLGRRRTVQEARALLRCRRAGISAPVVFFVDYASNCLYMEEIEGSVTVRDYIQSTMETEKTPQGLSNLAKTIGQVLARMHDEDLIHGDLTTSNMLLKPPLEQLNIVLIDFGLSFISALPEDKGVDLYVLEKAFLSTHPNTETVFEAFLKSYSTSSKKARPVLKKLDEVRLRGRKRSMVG
UniProt Q96F44: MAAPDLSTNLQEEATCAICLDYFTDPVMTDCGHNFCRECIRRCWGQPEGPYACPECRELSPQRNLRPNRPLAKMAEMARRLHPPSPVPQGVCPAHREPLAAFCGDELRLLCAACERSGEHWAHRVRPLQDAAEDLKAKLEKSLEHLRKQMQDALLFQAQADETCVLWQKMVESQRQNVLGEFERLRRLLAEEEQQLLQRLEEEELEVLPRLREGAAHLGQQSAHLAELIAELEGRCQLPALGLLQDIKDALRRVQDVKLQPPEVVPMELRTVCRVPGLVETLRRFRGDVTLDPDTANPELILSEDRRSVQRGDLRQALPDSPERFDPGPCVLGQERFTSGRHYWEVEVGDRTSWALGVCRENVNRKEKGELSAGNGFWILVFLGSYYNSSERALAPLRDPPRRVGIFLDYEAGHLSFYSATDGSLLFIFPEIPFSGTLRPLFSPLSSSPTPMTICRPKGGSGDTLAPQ
UniProt Q53FA7: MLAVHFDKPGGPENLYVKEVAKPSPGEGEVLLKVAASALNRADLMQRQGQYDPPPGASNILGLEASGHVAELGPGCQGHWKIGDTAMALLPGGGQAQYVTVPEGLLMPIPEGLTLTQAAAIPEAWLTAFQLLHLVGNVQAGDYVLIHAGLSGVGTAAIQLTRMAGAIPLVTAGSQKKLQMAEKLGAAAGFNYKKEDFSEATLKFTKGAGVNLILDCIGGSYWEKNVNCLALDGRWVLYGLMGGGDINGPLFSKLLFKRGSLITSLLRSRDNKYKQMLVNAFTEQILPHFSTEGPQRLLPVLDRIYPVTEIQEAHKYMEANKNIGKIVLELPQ

The targets below were run with CCCc1cc(C)[nH]c(=O)c1CNC(=O)c1cc(-c2ccnc(N3CCN(C)CC3)c2)cc2c1cnn2C(C)C (assay: log2 fold change, soluble protein after heating vs DMSO (PISA); higher = thermal stabilisation; K562 cells, 10 uM, 30 min; active = over 0.2 and 3.5 SD of the protein, either way, in both replicates (recomputed)).
Procedure, shortened: (§1)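 K562 cells (2×10^6 cells/mL) were treated with 10 μM compound for 30 min, and aliquots were heated for 3 min over 48°C-58°C. Pooled aliquots were extracted in PBS with 0.5% NP-40 at 4°C, and the supernatant after 21,000xg for 90 min was measured by TMTpro 16plex LC-MS/MS with channel sums equalised. Reported thermal stability, relative to control samples and from duplicates, is a log2 fold change.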

log2 fold change, inactive:
TPP2 (UniProt Q5VZU9) 0.092
TRNT1 (UniProt Q96Q11) 0.03
TPM1 isoform 4 (UniProt P09493) 0.241
TOMM34 (UniProt Q15785) 0.07
TPM2 (UniProt P07951) 0.405
TRAPPC11 (UniProt Q7Z392) -0.012
TOMM40L (UniProt Q969M1) -0.015
TOP2A isoform 4 (UniProt P11388) 0.182
TPM1 (UniProt H7BYY1) -0.035
TSEN15 (UniProt Q8WW01) -0.033

These targets were tested with CCN(CC)Cc1ccc2cc(COC(=O)Nc3ccc(C(=O)NO)cc3)ccc2c1 [givinostat] in the same assay as above.
Procedure, shortened: as §1

log2 fold change, inactive:
TOMM20 (UniProt Q15388) 0.011
TSEN34 (UniProt Q9BSV6) -0.027
TSC22D4 (UniProt Q9Y3Q8) 0.011
TOP1 (UniProt P11387) 0.225
TRIP13 (UniProt Q15645) 0.018
TOP3B (UniProt O95985) -0.014
TRIM4 (UniProt Q9C037) -0.086
TPM3 isoform 4 (UniProt P06753) -0.077
TPP2 (UniProt P29144) 0.153
TOMM40 (UniProt O96008) -0.007
TRAPPC8 (UniProt Q9Y2L5) 0.066
TOR2A (UniProt Q5JU69) -0.021
TRIAP1 (UniProt O43715) 0.019
TRIP11 (UniProt Q15643) 0.018
TRIP6 (UniProt Q15654) 0.006
TP53RK (UniProt Q96S44) -0.007
TOR1AIP2 (UniProt Q8NFQ8) -0.032
TOE1 (UniProt Q96GM8) -0.055
TPM4, A0A2R8Y5V9 -0.004
TRIM11 (UniProt Q96F44) 0.012
TRMT6 (UniProt Q9UJA5) -0.007
TOM1 isoform 2 (UniProt O60784) 0.013
TP53I3 (UniProt Q53FA7) 0.007
TPP2 (UniProt Q5VZU9) 0.158
TRNT1 (UniProt Q96Q11) 0.022
TPM1 isoform 4 (UniProt P09493) -0.032
TOMM34 (UniProt Q15785) 0.162
TPM2 (UniProt P07951) -0.011
TRAPPC11 (UniProt Q7Z392) 0.037
TOMM40L (UniProt Q969M1) -0.032
TOP2A isoform 4 (UniProt P11388) 0.207
TPM1 (UniProt H7BYY1) -0.037
TSEN15 (UniProt Q8WW01) -0.025

Each target was assayed with CCN(CCCOc1ccc2c(Nc3cc(CC(=O)Nc4cccc(F)c4)[nH]n3)ncnc2c1)CCOP(=O)(O)O [barasertib] in the same assay as above.
Procedure, shortened: as §1

log2 fold change, inactive:
TOMM20 (UniProt Q15388) 0.021
TSEN34 (UniProt Q9BSV6) 0.01
TSC22D4 (UniProt Q9Y3Q8) 0.031
TOP1 (UniProt P11387) -0.057
TRIP13 (UniProt Q15645) 0
TOP3B (UniProt O95985) -0.009
TRIM4 (UniProt Q9C037) 0.011
TPM3 isoform 4 (UniProt P06753) -0.006
TPP2 (UniProt P29144) -0.023
TOMM40 (UniProt O96008) -0.008
TRAPPC8 (UniProt Q9Y2L5) 0.033
TOR2A (UniProt Q5JU69) 0.007
TRIAP1 (UniProt O43715) 0.037
TRIP11 (UniProt Q15643) 0.044
TRIP6 (UniProt Q15654) -0.009
TP53RK (UniProt Q96S44) -0.014
TOR1AIP2 (UniProt Q8NFQ8) -0.009
TOE1 (UniProt Q96GM8) -0.063
TPM4, A0A2R8Y5V9 0.01
TRIM11 (UniProt Q96F44) 0.068
TRMT6 (UniProt Q9UJA5) -0.045
TOM1 isoform 2 (UniProt O60784) -0.01
TP53I3 (UniProt Q53FA7) -0.035
TPP2 (UniProt Q5VZU9) 0.004
TRNT1 (UniProt Q96Q11) 0.019
TPM1 isoform 4 (UniProt P09493) 0.014
TOMM34 (UniProt Q15785) 0.08
TPM2 (UniProt P07951) 0.04
TRAPPC11 (UniProt Q7Z392) 0.025
TOMM40L (UniProt Q969M1) -0.015
TOP2A isoform 4 (UniProt P11388) -0.054
TPM1 (UniProt H7BYY1) 0.029
TSEN15 (UniProt Q8WW01) 0.03
